Measured values as given in article PMC5443761.
These are yes or no findings as the source states them, for the method shown. In cells and extracts the contact can be indirect. Some results given as binding are weak or reduced against the parent protein; the word gives no strength.

By UniProt entry, the sequences of proteins in these tests, tags left out. Residues count along the entry.
UniProt P05107, residues 23-769: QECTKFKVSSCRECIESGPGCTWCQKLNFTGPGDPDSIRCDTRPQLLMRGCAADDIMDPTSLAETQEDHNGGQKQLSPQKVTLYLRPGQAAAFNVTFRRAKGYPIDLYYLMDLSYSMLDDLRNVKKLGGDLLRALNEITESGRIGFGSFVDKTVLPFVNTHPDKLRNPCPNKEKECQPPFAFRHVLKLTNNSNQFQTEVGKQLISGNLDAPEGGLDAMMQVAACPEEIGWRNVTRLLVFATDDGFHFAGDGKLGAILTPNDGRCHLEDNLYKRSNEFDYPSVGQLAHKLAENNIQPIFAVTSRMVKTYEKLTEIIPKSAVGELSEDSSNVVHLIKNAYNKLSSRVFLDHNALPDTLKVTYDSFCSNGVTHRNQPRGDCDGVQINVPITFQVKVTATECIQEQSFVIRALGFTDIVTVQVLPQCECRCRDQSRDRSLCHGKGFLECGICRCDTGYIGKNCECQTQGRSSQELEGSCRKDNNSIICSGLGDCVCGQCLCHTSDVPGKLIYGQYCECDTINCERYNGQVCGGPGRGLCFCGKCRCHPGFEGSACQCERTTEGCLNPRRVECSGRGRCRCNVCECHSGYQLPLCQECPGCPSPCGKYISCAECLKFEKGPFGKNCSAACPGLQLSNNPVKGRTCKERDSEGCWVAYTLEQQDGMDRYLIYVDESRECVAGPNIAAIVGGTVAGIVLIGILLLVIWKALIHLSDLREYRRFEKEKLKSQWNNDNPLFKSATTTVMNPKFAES
UniProt Q15389, residues 16-498: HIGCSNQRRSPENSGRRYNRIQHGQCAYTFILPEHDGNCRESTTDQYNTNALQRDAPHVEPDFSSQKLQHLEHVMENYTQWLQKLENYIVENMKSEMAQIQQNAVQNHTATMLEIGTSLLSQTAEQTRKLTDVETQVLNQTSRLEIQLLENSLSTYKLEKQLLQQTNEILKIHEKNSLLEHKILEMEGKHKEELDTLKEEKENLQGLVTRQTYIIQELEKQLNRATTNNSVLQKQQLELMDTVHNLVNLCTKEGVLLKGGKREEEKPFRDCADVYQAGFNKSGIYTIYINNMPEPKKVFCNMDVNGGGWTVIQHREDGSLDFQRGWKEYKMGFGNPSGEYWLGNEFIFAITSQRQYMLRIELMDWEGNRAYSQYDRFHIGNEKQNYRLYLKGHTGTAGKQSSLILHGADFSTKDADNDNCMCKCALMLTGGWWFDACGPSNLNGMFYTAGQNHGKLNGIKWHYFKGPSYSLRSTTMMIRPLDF

Biological target: CD18 (β2 integrin) on human neutrophils (human (endogenous in human neutrophils)) (UniProt P05107)
Assay: co-IP + cross-linking; isolated human neutrophils treated with rhAng-1 (0.7 µg/10^6 neutrophils) or PBS and the extracellular cross-linker DTSSP; lysed (0.3% CHAPS buffer); immunoprecipitated overnight at 4 °C with anti-CD18 IgG on protein G-Sepharose; immunoblot with anti-CD18 and anti-angiopoietin-1; only the binder purified

- binding: binds weakly
Substance: recombinant human angiopoietin-1 (from UniProt Q15389 16-498) (ligand)
